Measured values: patent US20230167198A1 (University of California, published 2023)
Results are given in words; binding and its absence hold for the method and conditions named. Some results given as binding are weak or reduced against the parent protein; the word gives no strength.

Chains of the proteins cited; added tags and fusions are not shown. Lines headed by an entry give the natural chain unless they say otherwise; changes in a name come on top. A line that says so, or that is headed by a name, gives the form on record, which may keep a tag or linker. Residues count along the entry.
UniProt P08519: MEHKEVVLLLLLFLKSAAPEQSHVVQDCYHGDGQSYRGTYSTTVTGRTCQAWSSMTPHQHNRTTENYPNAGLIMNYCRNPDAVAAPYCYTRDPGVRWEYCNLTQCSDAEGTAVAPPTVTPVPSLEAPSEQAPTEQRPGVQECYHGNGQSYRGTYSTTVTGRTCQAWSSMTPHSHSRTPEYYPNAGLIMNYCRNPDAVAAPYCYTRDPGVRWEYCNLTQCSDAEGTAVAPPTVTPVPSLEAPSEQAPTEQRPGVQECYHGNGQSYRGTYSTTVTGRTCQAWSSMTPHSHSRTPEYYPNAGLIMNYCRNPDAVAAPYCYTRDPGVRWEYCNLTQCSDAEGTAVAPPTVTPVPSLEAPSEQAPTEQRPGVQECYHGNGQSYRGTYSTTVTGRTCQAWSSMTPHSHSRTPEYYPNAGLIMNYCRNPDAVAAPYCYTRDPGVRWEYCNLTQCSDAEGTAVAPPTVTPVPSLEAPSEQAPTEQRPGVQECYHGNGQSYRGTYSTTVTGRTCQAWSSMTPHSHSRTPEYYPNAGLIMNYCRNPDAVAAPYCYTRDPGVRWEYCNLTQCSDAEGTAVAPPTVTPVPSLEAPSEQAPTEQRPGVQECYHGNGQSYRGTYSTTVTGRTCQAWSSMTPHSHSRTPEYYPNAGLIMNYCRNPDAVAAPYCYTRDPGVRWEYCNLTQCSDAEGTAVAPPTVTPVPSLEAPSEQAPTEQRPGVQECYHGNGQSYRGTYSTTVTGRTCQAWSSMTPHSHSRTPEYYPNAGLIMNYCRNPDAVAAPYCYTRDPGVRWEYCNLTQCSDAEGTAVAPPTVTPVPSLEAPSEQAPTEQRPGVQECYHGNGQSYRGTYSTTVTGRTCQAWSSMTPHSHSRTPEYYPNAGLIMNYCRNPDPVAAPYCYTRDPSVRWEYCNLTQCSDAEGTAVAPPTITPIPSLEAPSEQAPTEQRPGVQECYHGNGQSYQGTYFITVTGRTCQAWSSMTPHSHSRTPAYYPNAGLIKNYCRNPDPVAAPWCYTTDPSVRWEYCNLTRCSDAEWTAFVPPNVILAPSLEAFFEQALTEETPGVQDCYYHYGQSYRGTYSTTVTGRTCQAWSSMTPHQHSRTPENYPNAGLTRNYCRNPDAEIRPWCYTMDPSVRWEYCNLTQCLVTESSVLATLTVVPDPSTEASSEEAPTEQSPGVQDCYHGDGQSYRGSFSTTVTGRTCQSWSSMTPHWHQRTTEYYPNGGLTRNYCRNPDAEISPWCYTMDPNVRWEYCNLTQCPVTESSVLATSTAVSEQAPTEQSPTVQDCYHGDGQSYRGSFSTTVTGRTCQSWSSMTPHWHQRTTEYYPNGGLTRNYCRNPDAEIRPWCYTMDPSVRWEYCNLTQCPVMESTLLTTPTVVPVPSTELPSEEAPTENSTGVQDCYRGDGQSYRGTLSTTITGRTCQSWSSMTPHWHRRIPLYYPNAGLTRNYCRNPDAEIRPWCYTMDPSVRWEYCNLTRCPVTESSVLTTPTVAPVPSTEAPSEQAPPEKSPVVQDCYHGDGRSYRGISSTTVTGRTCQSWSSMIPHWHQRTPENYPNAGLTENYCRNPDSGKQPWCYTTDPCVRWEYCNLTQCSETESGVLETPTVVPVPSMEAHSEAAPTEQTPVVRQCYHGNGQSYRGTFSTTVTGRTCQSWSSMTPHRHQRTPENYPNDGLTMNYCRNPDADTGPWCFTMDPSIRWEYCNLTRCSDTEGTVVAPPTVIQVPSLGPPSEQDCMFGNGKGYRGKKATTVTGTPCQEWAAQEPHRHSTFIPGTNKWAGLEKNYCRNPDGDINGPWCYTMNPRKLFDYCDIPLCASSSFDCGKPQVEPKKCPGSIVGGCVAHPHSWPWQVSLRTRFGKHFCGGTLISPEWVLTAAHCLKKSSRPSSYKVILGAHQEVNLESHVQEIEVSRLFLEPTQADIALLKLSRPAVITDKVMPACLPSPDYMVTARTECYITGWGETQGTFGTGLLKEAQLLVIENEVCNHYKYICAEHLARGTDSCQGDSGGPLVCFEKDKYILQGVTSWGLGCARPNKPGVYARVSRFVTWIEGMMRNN
KIV6-P recombinant apolipoprotein(a) construct: residues 1157-2040 of P08519
KIV7-P recombinant apolipoprotein(a) construct: residues 1263-2040 of P08519
KIV8-P recombinant apolipoprotein(a) construct: residues 1377-2040 of P08519
KIV9-P recombinant apolipoprotein(a) construct: residues 1491-2040 of P08519
17K apolipoprotein(a) construct without KV (P08519, form named): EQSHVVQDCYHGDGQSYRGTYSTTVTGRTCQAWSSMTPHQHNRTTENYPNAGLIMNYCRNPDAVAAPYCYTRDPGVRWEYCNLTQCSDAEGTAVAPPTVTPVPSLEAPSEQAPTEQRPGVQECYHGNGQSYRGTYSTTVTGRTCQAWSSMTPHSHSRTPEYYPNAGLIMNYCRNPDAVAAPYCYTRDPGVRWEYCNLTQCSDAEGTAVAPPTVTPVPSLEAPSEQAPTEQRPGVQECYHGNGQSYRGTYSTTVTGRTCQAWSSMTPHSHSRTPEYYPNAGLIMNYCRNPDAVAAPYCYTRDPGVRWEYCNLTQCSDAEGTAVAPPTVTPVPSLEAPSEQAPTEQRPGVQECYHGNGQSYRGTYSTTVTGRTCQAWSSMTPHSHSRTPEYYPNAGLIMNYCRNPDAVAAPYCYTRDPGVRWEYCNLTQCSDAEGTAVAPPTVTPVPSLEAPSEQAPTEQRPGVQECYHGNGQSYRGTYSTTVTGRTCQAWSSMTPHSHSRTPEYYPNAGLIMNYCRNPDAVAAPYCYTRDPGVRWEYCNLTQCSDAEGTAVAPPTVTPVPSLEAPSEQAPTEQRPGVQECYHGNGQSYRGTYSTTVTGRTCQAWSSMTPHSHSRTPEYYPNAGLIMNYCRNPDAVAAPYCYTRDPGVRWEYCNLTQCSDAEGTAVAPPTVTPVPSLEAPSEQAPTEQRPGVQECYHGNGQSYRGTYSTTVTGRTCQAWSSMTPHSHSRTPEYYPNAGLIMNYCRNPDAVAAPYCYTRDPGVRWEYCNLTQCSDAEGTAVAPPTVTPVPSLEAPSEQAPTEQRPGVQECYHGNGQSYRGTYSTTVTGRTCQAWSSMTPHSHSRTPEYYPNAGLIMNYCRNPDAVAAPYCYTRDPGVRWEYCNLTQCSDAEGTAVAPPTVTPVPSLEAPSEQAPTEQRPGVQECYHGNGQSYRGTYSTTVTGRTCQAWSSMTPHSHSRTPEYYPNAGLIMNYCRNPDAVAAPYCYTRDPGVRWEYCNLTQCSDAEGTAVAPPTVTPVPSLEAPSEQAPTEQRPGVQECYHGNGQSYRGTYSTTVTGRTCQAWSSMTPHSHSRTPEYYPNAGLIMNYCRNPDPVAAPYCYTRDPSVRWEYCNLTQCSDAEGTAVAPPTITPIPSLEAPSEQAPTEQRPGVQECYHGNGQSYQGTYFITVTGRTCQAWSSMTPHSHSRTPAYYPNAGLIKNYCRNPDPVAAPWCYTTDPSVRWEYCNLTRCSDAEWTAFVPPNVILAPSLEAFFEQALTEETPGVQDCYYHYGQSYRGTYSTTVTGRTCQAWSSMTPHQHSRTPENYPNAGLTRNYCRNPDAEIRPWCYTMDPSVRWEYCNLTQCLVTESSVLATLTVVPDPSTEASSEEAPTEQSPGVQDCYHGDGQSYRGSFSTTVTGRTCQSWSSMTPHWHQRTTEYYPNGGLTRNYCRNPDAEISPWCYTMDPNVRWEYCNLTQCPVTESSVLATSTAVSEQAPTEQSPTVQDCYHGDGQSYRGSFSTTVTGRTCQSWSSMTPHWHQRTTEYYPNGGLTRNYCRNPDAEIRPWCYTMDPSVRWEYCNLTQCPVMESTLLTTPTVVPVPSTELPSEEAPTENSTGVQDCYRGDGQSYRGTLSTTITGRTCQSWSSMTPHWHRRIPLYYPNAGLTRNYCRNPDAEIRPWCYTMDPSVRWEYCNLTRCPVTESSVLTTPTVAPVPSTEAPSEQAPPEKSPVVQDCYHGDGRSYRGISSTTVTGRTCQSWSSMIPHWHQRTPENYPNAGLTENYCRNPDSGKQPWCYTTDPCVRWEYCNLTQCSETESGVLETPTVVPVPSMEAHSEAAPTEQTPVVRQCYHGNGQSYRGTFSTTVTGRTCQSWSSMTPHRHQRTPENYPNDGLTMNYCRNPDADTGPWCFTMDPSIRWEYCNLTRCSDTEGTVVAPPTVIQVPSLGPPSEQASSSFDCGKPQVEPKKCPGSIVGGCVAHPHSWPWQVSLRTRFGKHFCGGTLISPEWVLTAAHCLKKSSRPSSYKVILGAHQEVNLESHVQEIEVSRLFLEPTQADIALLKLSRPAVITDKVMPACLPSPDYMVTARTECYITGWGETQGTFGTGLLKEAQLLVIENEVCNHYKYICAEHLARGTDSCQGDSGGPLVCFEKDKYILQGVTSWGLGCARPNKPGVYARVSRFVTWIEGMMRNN
17K apolipoprotein(a) construct without the protease domain (P08519, form named): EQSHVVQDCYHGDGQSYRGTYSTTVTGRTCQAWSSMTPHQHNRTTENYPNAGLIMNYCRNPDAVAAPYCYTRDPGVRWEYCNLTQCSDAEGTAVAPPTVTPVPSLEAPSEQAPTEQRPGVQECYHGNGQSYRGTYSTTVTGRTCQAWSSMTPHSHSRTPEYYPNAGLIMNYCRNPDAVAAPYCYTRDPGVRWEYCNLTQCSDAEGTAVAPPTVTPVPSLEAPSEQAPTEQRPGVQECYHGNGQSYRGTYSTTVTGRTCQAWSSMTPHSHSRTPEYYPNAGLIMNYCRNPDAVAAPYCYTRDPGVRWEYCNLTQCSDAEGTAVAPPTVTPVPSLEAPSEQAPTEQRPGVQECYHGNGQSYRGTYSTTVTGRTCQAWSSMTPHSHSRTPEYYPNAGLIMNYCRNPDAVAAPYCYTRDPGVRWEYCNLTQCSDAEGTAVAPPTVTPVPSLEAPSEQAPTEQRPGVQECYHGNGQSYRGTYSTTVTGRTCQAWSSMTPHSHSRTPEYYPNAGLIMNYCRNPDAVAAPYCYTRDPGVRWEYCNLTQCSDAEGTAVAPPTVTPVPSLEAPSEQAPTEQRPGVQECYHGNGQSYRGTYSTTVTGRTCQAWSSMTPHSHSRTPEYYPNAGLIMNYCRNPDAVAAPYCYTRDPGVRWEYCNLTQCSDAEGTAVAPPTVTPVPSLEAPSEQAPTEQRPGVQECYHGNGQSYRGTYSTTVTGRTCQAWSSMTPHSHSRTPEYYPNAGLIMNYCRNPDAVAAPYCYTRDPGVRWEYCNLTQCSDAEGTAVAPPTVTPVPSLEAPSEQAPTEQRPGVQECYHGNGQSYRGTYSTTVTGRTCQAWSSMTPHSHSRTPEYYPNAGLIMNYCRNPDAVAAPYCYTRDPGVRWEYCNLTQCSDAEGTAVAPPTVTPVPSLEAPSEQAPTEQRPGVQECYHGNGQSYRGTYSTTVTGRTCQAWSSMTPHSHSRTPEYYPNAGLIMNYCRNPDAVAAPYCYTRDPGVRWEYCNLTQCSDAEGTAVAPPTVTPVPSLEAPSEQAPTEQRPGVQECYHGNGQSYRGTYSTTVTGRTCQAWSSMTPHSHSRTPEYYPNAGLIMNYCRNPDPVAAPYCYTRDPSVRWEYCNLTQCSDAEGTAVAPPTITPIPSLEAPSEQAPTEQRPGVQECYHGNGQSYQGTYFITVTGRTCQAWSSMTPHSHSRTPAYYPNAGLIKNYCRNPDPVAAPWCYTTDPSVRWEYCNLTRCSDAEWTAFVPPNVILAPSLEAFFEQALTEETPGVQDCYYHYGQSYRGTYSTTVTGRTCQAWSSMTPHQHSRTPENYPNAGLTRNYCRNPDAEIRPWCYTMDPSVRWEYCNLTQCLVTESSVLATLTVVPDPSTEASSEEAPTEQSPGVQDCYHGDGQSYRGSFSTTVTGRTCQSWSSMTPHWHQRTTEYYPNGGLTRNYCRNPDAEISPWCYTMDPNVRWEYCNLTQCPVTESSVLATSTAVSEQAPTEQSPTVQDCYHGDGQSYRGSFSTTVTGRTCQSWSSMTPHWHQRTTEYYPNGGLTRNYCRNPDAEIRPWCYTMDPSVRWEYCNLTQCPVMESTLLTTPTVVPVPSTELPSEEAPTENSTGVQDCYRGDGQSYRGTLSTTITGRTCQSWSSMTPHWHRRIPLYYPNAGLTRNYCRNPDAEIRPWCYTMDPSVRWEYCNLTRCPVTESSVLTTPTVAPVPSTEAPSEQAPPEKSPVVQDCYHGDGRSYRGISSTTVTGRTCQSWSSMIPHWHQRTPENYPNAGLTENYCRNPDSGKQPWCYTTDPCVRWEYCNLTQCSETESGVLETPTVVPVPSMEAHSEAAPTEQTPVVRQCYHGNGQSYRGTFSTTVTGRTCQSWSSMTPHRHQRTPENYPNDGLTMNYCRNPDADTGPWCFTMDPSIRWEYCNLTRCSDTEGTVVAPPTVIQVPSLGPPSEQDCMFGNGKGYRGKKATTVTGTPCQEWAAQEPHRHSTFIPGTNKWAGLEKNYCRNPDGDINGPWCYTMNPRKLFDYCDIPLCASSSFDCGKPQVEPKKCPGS

Legend:
[1] = target: T1, Lipoprotein(a) purified from a single donor (human) (UniProt P08519+P04114); assay: ELISA of hybridoma conditioned media on coated Lp(a)
[2] = target: T1, Lipoprotein(a) purified from a single donor (human); assay: ELISA of hybridoma subclones on coated Lp(a)
[3] = target: 17K apolipoprotein(a) construct without KV (human) (UniProt P08519); assay: dot-blot, pattern duplicated by western blot
[4] = target: KIV9-P recombinant apolipoprotein(a) construct (UniProt P08519); assay: dot-blot, pattern duplicated by western blot
[5] = target: KIV8-P recombinant apolipoprotein(a) construct (UniProt P08519); assay: dot-blot, pattern duplicated by western blot
[6] = target: KIV6-P recombinant apolipoprotein(a) construct (UniProt P08519); assay: dot-blot, pattern duplicated by western blot
[7] = target: 17K apolipoprotein(a) construct without the protease domain (human) (UniProt P08519); assay: dot-blot, pattern duplicated by western blot
[8] = target: KIV7-P recombinant apolipoprotein(a) construct (UniProt P08519); assay: dot-blot, pattern duplicated by western blot
[9] = target: 17K apolipoprotein(a) construct without KV (human) (UniProt P08519); assay: dot-blot and reducing western blot
[10] = target: KIV9-P recombinant apolipoprotein(a) construct (UniProt P08519); assay: dot-blot and reducing western blot
[11] = target: KIV8-P recombinant apolipoprotein(a) construct (UniProt P08519); assay: dot-blot and reducing western blot
[12] = target: KIV6-P recombinant apolipoprotein(a) construct (UniProt P08519); assay: dot-blot and reducing western blot
[13] = target: T1, Lipoprotein(a) purified from a single donor (human); assay: dot-blot and reducing western blot
[14] = target: 17K apolipoprotein(a) construct without the protease domain (human) (UniProt P08519); assay: dot-blot and reducing western blot
[15] = target: KIV7-P recombinant apolipoprotein(a) construct (UniProt P08519); assay: dot-blot and reducing western blot
[16] = target: T1, Lipoprotein(a) purified from a single donor (human); assay: direct chemiluminescent ELISA, purified antibody on Lp(a) coated at 5 ug/ml

- binding [1]: binds
- binding [2]: binds
- binding [3]: binds
- binding [4]: binds
- binding [5]: binds
- binding [6]: binds
- binding [7]: binds
- binding [8]: binds
- binding [9]: binds
- binding [10]: binds
- binding [11]: binds
- binding [12]: binds
- binding [13]: binds
- binding [14]: binds
- binding [15]: binds
- binding [16]: binds
B1: LPA-KIV9 murine monoclonal antibody (antibody, IgG1, V domains shown)
VH: QVQLQQSGAELVRPGASVKLSCKALGYTFTDYELHWLKQTPVHGLEWIGAVHPGSGGSAYNQNFKDKATLTADKSSSTAYMELSSLTSEDSAVYYCTREGPFYWGQGTTLTVSS
VL: DVVMTQTPLSLPVSLGDQASISCRSSQSLVHSNGNAYLHWYLQKPGQSPKLLIYKVSNRFSGVPDRFSGSGSGTNFTLKISRVEAEDLGIYFCSQSTHVPLTFGAGTKLELK
notes: constant regions are not; also called Colony #1; Colony 1
